Structures are written as SMILES. Counter-ions that a name gives are not always drawn. Some of the results follow. This data set is noisy: repeats of one test often differ as much as different tests do.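 About 40 Schistosoma mansoni schistosomula per well were imaged over time in bright field and compared with 0.1% DMSO wells. A drug counts as a hit if its Mahalanobis distance reaches 2.47 or more, three standard deviations above the DMSO control mean. Degeneracy is the fraction of worms scored opaque.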 Numbered stars: 1 amine (or outer) side, 2 acyl side, 3 side chain; on linkers, the order of the positions; unused ones are H or OH. Bridge positions count the residues as written; N and C are the ends. Square brackets hold non-standard residues; d marks the D form. Peptide text beside a SMILES is read from it. * marks the point of attachment. X1 = NC1=N[C@@H]([C@H](N[*:1])C(=O)[*:2])C[C@H](O)N1; ΔAla(Z-3-ureido) = NC(=O)N/C=C(\N)C(=O)O; β3hOrn = NCCC[C@H](N)CC(=O)*; Dap = NC[C@H](N)C(=O)O

The experiment has as its system Schistosoma mansoni schistosomula. As to the kind of experiment: degeneracy (percent of somules classified as degenerate/opaque); higher = more parasite degeneration/death; extreme values may be limits of the assay. To be noted: 10 µM; 72 h.
As to `COc1ccccc1O` [Guaiacol], the degeneracy was 11.1%.
Compound `CCCCC(C)(O)C/C=C/[C@H]1[C@H](O)CC(=O)[C@@H]1CCCCCCC(=O)OC` (mixture of isomers) [Misoprostol] gave a degeneracy of 1.85%.
Next, `COc1ccc(C(=O)c2ccc(C)cc2)c(O)c1` [Mexeneone]: 16.2%; `NC(=O)NC(=O)Cc1ccccc1` [Phenacemide]: 12.2%; `CN1[C@@H](CC(=O)c2ccccc2)CCC[C@H]1C[C@H](O)c1ccccc1` [Lobeline]: 7.69%.
Turning to `OC[C@@H](O)[C@@H](O[C@@H]1O[C@H](CO)[C@H](O)[C@H](O)[C@H]1O)[C@H](O)[C@@H](O)CO` [Lacitol], the degeneracy is 3.45%.
Next, `OC[C@@H](O)[C@@H](O[C@@H]1O[C@H](CO)[C@H](O)[C@H](O)[C@H]1O)[C@H](O)[C@@H](O)CO` [D-lactitol Monohydrate]: 2.44%; `CC(=O)OCC(=O)[C@@]12N=C(C)O[C@@H]1C[C@H]1[C@@H]3CCC4=CC(=O)C=C[C@]4(C)[C@H]3[C@@H](O)C[C@@]12C` [Deflazacort]: 3.57%.
`OCc1cc(C(O)CNCCCCCCOCCCCc2ccccc2)ccc1O` (centres undefined) [Salmeterol] displayed a degeneracy of 39.3%.
Under `CC(=O)Nc1ccc(CC(=O)O)cc1` [Actarit] stands 0%; under `Cc1nc2n(c(=O)c1CCN1CCC(c3noc4cc(F)ccc34)CC1)CCCC2` [Risperidone], 0%; under `O=S(=O)(O)CCS` [Mesna], 3.03%.
Next, `CCn1cc(C(=O)O)c(=O)c2cnc(N3CCCC3)nc21` [Piromidic Acid]: 2.44%.
Next, `CCCCCCCCCCCCC[N+](C)(C)Cc1ccccc1` [Benzalkonium Chloride]: 100%.
With `CC(C)(C)NC[C@H](O)c1ccc(O)c(CO)c1` [Levalbuterol Hydrochloride], the degeneracy was determined as 11.4%.
For `O=C(O)c1cc(-c2ccc(F)cc2F)ccc1O` [Diflunisal], the degeneracy was determined as 11.5%.
In turn, `CCCCNC(=O)NS(=O)(=O)c1ccc(C)cc1` [Tolbutamide] came in with a degeneracy of 15.6%.
Under `CC(=O)[C@H]1CC[C@H]2[C@@H]3C[C@H](C)C4=CC(=O)CC[C@]4(C)[C@H]3[C@@H](O)C[C@]12C` [Medrysone] stands 4.35%.
Next, `CCOC(=O)OC(C)OC1=C(C(=O)Nc2ccccn2)N(C)S(=O)(=O)c2ccccc21` (centres undefined) [Ampiroxicam]: 7.5%; `CC1(C)NC(=O)N(c2ccc([N+](=O)[O-])c(C(F)(F)F)c2)C1=O` [Nilutamide]: 2.33%.
With `COC(=O)[C@@H]1[C@H]2C[C@H]3c4[nH]c5ccccc5c4CCN3C[C@@H]2CC[C@@H]1O` [Yohimbine Hydrochloride], the degeneracy came to 17.2%.
Under `COC(=O)[C@@H]1[C@H]2C[C@H]3c4[nH]c5ccccc5c4CCN3C[C@@H]2CC[C@@H]1O` [Yohimbine] stands 61.5%; under `CC(C)NCC(O)COc1cccc2ccccc12` (centres undefined) [Propranolol], 3.57%.
Under `CCCCOc1cc(C(=O)NCCN(CC)CC)c2ccccc2n1` [Dibucaine] stands 8%; under `CC[C@H]1OC(=O)[C@H](C)C(=O)[C@H](C)[C@@H](O[C@@H]2O[C@H](C)C[C@H](N(C)C)[C@H]2O)[C@](C)(OC)C[C@@H](C)C(=O)[C@H](C)[C@H]2N(CCCCn3cnc(-c4cccnc4)c3)C(=O)O[C@]12C` [Telithromycin], 0%; under `O=P(O)(O)C(Cl)(Cl)P(=O)(O)O` [Clodronic Acid], 14.3%.
Compound `O=C1CCc2cc(OCCCCc3nnnn3C3CCCCC3)ccc2N1` [Cilostazol] showed a degeneracy of 7.14%.
Next, `CCS(=O)(=O)CCn1c([N+](=O)[O-])cnc1C` [Tinidazole]: 6.45%; `Fc1ccc([C@@H]2CCNC[C@H]2COc2ccc3c(c2)OCO3)cc1` [Paroxetine]: 100%.
Under `Nc1nc(O)c2ncn(CCC(CO)CO)c2n1` [Penciclovir] stands 10%; under `O=c1[nH]cnc2c1ncn2[C@H]1CC[C@@H](CO)O1` [Didanosine], 5.88%.
In turn, `NCCC[C@H](N)CC(=O)N[C@H]1CNC(=O)[C@H]([C@H]2C[C@H](O)NC(N)=N2)NC(=O)/C(=C/NC(N)=O)NC(=O)[C@H](CO)NC(=O)[C@H](CO)NC1=O` [Viomycin Sulfate] (β3hOrn-[Dap]SS[ΔAla(Z-3-ureido)][X1]; lactam 1-C) returned a degeneracy of 6.9%.
`NC(CO)C(=O)NNCc1ccc(O)c(O)c1O` (centres undefined) [Benserazide] returned a degeneracy of 9.52%.
With `C[C@H]1COc2c(N3CCN(C)CC3)c(F)cc3c(=O)c(C(=O)O)cn1c23` [Levofloxacin], the degeneracy amounted to 4.17%.
Next, `C[N+](C)(C)CCO.[Cl-]` [Choline Chloride]: 13.2%; `CN1CCC(OC(c2ccccc2)c2ccccc2)CC1` [Diphenylpyraline Hydrochloride]: 7.69%.
Turning to `O=C(Oc1cccc2cccnc12)c1ccccc1` [benzoxiquine], the degeneracy was 100%.
Under `CCOC(=O)[C@H](CCc1ccccc1)N[C@@H](C)C(=O)N1Cc2cc(OC)c(OC)cc2C[C@H]1C(=O)O` [Moexipril Hydrochloride] stands 8.7%.
Under `Clc1ccc(Nc2nnc(Cc3ccncc3)c3ccccc23)cc1` [Vatalanib Dihydrochloride] stands 21.4%; under `O=C(O)CSCC(=O)NC1CCSC1=O` (centres undefined) [Erdosteine], 0%; under `NCC[C@H](O)C(=O)N[C@@H]1C[C@H](N)[C@@H](O[C@H]2O[C@H](CN)[C@@H](O)[C@H](O)[C@H]2O)[C@H](O)[C@H]1O[C@H]1O[C@H](CO)[C@@H](O)[C@H](N)[C@H]1O` [Amikacin Sulfate], 0%.
`CC(C)C(=O)Nc1ccc([N+](=O)[O-])c(C(F)(F)F)c1` [Flutamide] yielded a degeneracy of 5.26%.
Regarding `C[C@H]1O[C@@H](O[C@H]2CC[C@@]3(C)[C@H](CC[C@@H]4[C@@H]3C[C@@H](O)[C@]3(C)[C@@H](C5=CC(=O)OC5)CC[C@]43O)C2)C[C@H](O)[C@@H]1O[C@H]1C[C@H](O)[C@H](O[C@H]2C[C@H](O)[C@H](O[C@@H]3O[C@H](CO)[C@@H](O)[C@H](O)[C@H]3O)[C@@H](C)O2)[C@@H](C)O1` [Deslanoside], the degeneracy was determined as 0%.
`Cn1cnc([N+](=O)[O-])c1Sc1ncnc2[nH]cnc12` [Azathioprine] displayed a degeneracy of 8.57%.
Compound `CC(=O)OCC[N+](C)(C)C` [Acetylcholine] came in with a degeneracy of 17.4%.
Next, `OCCN1C[C@H](O)[C@@H](O)[C@H](O)[C@H]1CO` [Miglitol]: 0%; `CC(=O)SCC(Cc1ccccc1)C(=O)NCC(=O)OCc1ccccc1` (centres undefined) [Racecadotril]: 3.7%.
The compound `COC(=O)C1=C(C)NC(C)=C(C(=O)OC(C)C)C1c1cccc2nonc12` (centres undefined) [Isradipine] had a degeneracy of 5.88%.
Under `CN1CCN(c2cc3c(cc2F)c(=O)c(C(=O)O)cn3-c2ccc(F)cc2)CC1` [Difloxacin Hydrochloride] stands 2.78%.
The compound `O=C(O)CCCC[C@@H]1SC[C@@H]2NC(=O)N[C@@H]21` [Biotin] returned a degeneracy of 2.86%.
The compound `CC(C)NCC(O)c1cc(O)cc(O)c1` (centres undefined) [Metaproterenol] returned a degeneracy of 3.03%.
In turn, `CCC(=O)OCC(=O)[C@@]1(OC(=O)CC)[C@@H](C)C[C@H]2[C@@H]3CCC4=CC(=O)C=C[C@]4(C)[C@@]3(Cl)[C@@H](O)C[C@@]21C` [Beclomethasone Dipropionate] returned a degeneracy of 10%.
`CCN(CC)Cc1cc(Nc2ccnc3cc(Cl)ccc23)ccc1O` [Amodiaquine Dihydrochloride] returned a degeneracy of 81.8%.
`O=C1CCC(N2C(=O)c3ccccc3C2=O)C(=O)N1` (centres undefined) [Thalidomide] came in with a degeneracy of 0%.
In turn, `CC(=O)OCC1=C(C(=O)O)N2C(=O)[C@@H](NC(=O)Cc3cccs3)[C@H]2SC1` [Cephalothin Sodium] yielded a degeneracy of 11.1%.
Next, `CCOc1ccc(NC(=O)CC(C)O)cc1` (centres undefined) [Bucetin]: 7.69%.
For the compound `Clc1ccc(C(Cn2ccnc2)OCc2csc3c(Cl)cccc23)c(Cl)c1` (centres undefined) [Sertaconazole Nitrate], the degeneracy was found to be 85%.
Under `Cc1nc2n(c(=O)c1CCN1CCC(c3noc4cc(F)ccc34)CC1)CCCC2O` (centres undefined) [Paliperidone] stands 6.67%.
Next, `CCCCc1nc(Cl)c(CO)n1Cc1ccc(-c2ccccc2-c2nnn[nH]2)cc1` [Losartan, Losartan Potassium]: 2.94%; `Cc1cccc(Nc2ccccc2C(=O)O)c1C` [Mefenamic Acid]: 9.52%.
Next, `O=C(O)CCNC(=O)c1ccc(/N=N/c2ccc(O)c(C(=O)O)c2)cc1` [Balsalazide]: 3.85%; `C[C@H]1[C@H](OC(=O)CCC(=O)O)O[C@@H]2O[C@@]3(C)CC[C@H]4[C@H](C)CC[C@@H]1[C@@]24OO3` [Artesunate]: 4.76%; `O=C1OC(CN2CCOCC2)CN1/N=C/c1ccc([N+](=O)[O-])o1` (centres undefined) [Furaltadone]: 12.1%.
For `CC[n+]1c(-c2ccccc2)c2cc(N)ccc2c2ccc(N)cc21` [Homidium Bromide], the degeneracy was 100%.
For the compound `CNCCCN1c2ccccc2CCc2ccccc21` [Desipramine], the degeneracy is 100%.
As for `COC(=O)C1=C(C)NC(C)=C(C(=O)OCC(C)C)C1c1ccccc1[N+](=O)[O-]` (centres undefined) [Nisoldipine], the degeneracy was 4.65%.
`COC(=O)C1=C(C)NC(C)=C(C(=O)OCCN(C)Cc2ccccc2)C1c1cccc([N+](=O)[O-])c1` (centres undefined) [nicardipine] had a degeneracy of 6.9%.
Compound `CN1CCN(c2c(F)cc3c(=O)c(C(=O)O)cn4c3c2SCC4)CC1` [Rufloxacin Hydrochloride] gave a degeneracy of 8.82%.
Under `Cc1ccccc1C(OCCN(C)C)c1ccccc1` (centres undefined) [Orphenadrine] stands 15.8%.
Under `O=C1CCc2ccc(OCCCCN3CCN(c4cccc(Cl)c4Cl)CC3)cc2N1` [aripiprazole] stands 100%.
Turning to `CN(C)CCOC(c1ccc(Cl)cc1)c1ccccn1` (centres undefined) [Carbinoxamine], the degeneracy came to 9.09%.
Under `COc1c2ccoc2cc2oc(=O)ccc12` [Bergapten] stands 18.2%; under `CCN(CC)CCOc1ccc(C(=C(Cl)c2ccccc2)c2ccccc2)cc1` [clomiphene], 100%; under `CCCCCOC(=O)Nc1nc(=O)n([C@@H]2O[C@H](C)[C@@H](O)[C@H]2O)cc1F` [Capecitabine], 0%.

Source of the values: the supplement of paper PMC7752906.
